These results are taken from the supplement of paper PMC12067093, “Discovery and optimisation of a covalent ligand for TRIM25 and its application to targeted protein ubiquitination” (Chemical Science, 2025).

The other results are listed elsewhere or left out.
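Also: competitive profiling in live THP-1 cells: cysteine peptides tagged with an iodoacetamide desthiobiotin (IA-DTB) probe, intensity after compound treatment relative to DMSO-treated cells.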

Compound in the test: Cc1cc(ccc1-c1ccccc1)C(=O)N1CCCN(CC1)C(=O)CCl [compound 10]
Put plainly: probe-labelled cysteine peptide fold change vs DMSO (competition) (log2 fold change); higher = less target engagement (more negative = stronger competition). The following applies: 50 µM; THP-1; incubation time: 4 h.
For “AURKA_O14965_33_RVLVTQQFPCQNPLPVNSGQAQR (UniProt O14965)”, the “probe-labelled cysteine peptide fold change” value is -0.0811.

Take “BAZ1A_Q9NRL2_404_PREDMECDDLK (UniProt Q9NRL2)”: the “probe-labelled cysteine peptide fold change” value is -0.169.

As to “BIRC6_Q9NR09_2910_AVCGEMTR (UniProt Q9NR09)”, the “probe-labelled cysteine peptide fold change” value is -0.0873.

Turning to “BAG5_Q9UL15_157+166_ICAVQEIIEDCMK (UniProt Q9UL15)”, the “probe-labelled cysteine peptide fold change” value was determined as 0.196.

For “BOD1L1_Q8NFC6_1618_EGESGECAVAESEDR (UniProt Q8NFC6)”, the “probe-labelled cysteine peptide fold change” value was -0.1.

Regarding BOP1_Q14137_620_LMPNCK (UniProt Q14137), the “probe-labelled cysteine peptide fold change” value is -0.106.

As to “BOP1_Q14137_108_KTTEEQVQASTPCPR (UniProt Q14137)”, the “probe-labelled cysteine peptide fold change” value was -0.571.

“ATXN2_Q99700_556_VVNGGVPWPSPCPSPSSRPPSR (UniProt Q99700)”: the “probe-labelled cysteine peptide fold change” value was -0.419.

With “BCAP29_Q9UHQ4_171_DEECVLEAENK (UniProt Q9UHQ4)”, the “probe-labelled cysteine peptide fold change” value worked out at 0.145.

Turning to “BABAM2_Q9NXR7_34_VGLDATNCLR (UniProt Q9NXR7)”, the “probe-labelled cysteine peptide fold change” value was -0.19.

On to “BCAT1_P54687_338_EMFGSGTACVVCPVSDILYK (UniProt P54687)”, for which the “probe-labelled cysteine peptide fold change” value was determined as 0.135.

In the case of “BABAM1_Q9NWV8_222_TILVYSRPPCQPQFSLTEPMK (UniProt Q9NWV8)”, the “probe-labelled cysteine peptide fold change” value is -0.44.

As for “B4GAT1_O43505_146_EEAQLATVLAYALSSHCPDMR (UniProt O43505+B4GAT1)”, the “probe-labelled cysteine peptide fold change” value was found to be 0.305.

“BCKDHB_P21953_207_SPWGCVGHGALYHSQSPEAFFAHCPGIK (UniProt P21953)”: the “probe-labelled cysteine peptide fold change” value is -0.0892.

Regarding “BAZ1B_Q9UIG0_1006_ELDELLNCLHPQGIR (UniProt Q9UIG0)”, the “probe-labelled cysteine peptide fold change” value was 0.178.

For the target “BAZ1B_Q9UIG0_1393+1395_CSCGSYR (UniProt Q9UIG0)”, the “probe-labelled cysteine peptide fold change” value was -0.426.

As for “BOD1L1_Q8NFC6_1554_QSEVALPCTSIEADEGLIIGTHSR (UniProt Q8NFC6)”, the “probe-labelled cysteine peptide fold change” value is -0.0106.

For “BAZ2B_Q9UIF8_1960_GCHTYCHRPK (UniProt Q9UIF8)”, the “probe-labelled cysteine peptide fold change” value was -0.0125.

For the target “BHLHE22_Q8NFJ8_156_GSVAESSGGEQSPDDDSDGRCELVLR (UniProt Q8NFJ8)”, the “probe-labelled cysteine peptide fold change” value was -0.217.

Take “BANF1_O75531_67_DTCGANAK (UniProt O75531)”: the “probe-labelled cysteine peptide fold change” value is -0.0655.

In the case of “BAZ1A_Q9NRL2_586_RGGFDATDDACMELR (UniProt Q9NRL2)”, the “probe-labelled cysteine peptide fold change” value is -0.0751.

Take “BCR_P11274_395_HCPVVVSEATIVGVR (UniProt P11274)”: the “probe-labelled cysteine peptide fold change” value was found to be 0.187.
